Source: patent US20170251655A2, “COMPOSITIONS AND METHODS FOR CAPTURING, KILLING OR REPELLING BED BUGS” (OLFACTOR LABORATORIES, INC., priority 2014, published 2017)
Structures can show the parent of a compound that is named as a salt. At least one read-out could not be matched to a standard name with certainty.

Columns and labels:
[1] = tested on: bed bug (Cimex lectularius); test: Bed bug repellency assay (filter paper harborage, petri dish); format: in vivo; details: for % Repellency / Repellency Category: individual compounds; for % Repellency: 10 microliters compound + 90 microliters isopropyl alcohol on filter paper tent, 10 bed bugs, 5 minutes, vs control; for Repellency Category: category from % repellency
Procedure: Compounds and blends of the present invention were assayed for their ability to modify bed bug (Cimex lectularius) behavior using a bed bug repellency assay. This assay takes advantage of the bed bug's natural instinct to seek harborage. Two petri dishes were obtained and the inner areas of each were sanded down (leaving the perimeter smooth.) Talc was applied on the perimeter and on the inside walls of the petri dishes with a small paint brush to prevent bed bugs from escaping. A cut off top portion of a plastic cup was placed upside down in the center of one petri dish to create a holding arena for the bed bugs. A large plastic secondary container was gathered and a paper towel was laid down inside the bottom. The petri dish was then placed inside and ten bed bugs were placed inside the cut off portion of the cup.
Next, two pieces of filter paper were cut down the middle to yield 4 equally sized halves. Three pieces were placed inside a glass dish […] and the remaining piece was placed in a separate dish. All four pieces were folded down the middle to create a “tent” or “harborage” when laid such that the folded crease faced up. 100 microliters of isopropyl alcohol was pipetted into three pieces of filter paper (all housed in the first glass dish.) In a separate 4 ml vial, 90 microliters of isopropyl alcohol was combined and vortexed with 10 microliters of the compound or compound combination being tested. 100 microliters of this solution [comprising a total of […] of compound(s)] was pipetted onto the filter paper in the separate dish. All filter papers were then allowed to dry. Once dry, experiments were conducted first with two filter paper halves comprising only the isopropyl alcohol (control experiment) and then with the remaining filter paper halves [one with only isopropyl alcohol and one comprising the test compound(s).] Filter paper halves were placed on opposing sides of experimental petri dishes and bed bugs were allowed to move freely within the dishes by removal of the plastic cup top. Movement was allowed to continue for 5 minutes before the number bed bugs beneath each filter paper tent was recorded.

[2] = tested on: bed bug (Cimex lectularius); test: Bed bug threshold assay (mouse bait, treated filter paper on acrylic rod bridges); format: in vivo; details: 90 μl isopropyl alcohol + 10 μl testing compound on filter paper; bed bugs crossing treated vs control; mouse as bait; 10 minutes
Procedure: Compounds and blends of the present invention were assayed for their ability to modify bed bug (Cimex lectularius) behavior using a bed bug threshold assay. Three interceptors were laid side by side and acrylic rods were stuck on to the sides with putty so that they went from interceptor to interceptor forming bridges. Paper towels sections of 6 inches by 2 inches were placed so that they hung off of the ends of the acrylic rods to form harborage for bed bugs. Next, 125 mm pieces of Whatman Filter paper treated either with the compound of interest (90 μl isopropyl alcohol+10 μl testing compound) or with control solution of 100 μl isopropyl alcohol were stuck to the top of the acrylic rods with the compound impregnated filter on one rod and control impregnated filter on the other. In the middle interceptor a mouse was placed as bait for the bed bugs. […] Video footage at 1 second time intervals was obtained for 10 minutes then analyzed for bed bug movements. Repellency of any given compound or blend was calculated by counting how many bed bugs traversed the acrylic rods across either the treated or the control Whatman filter paper. Percent repellency was determined by comparing the number of bed bugs which crossed the treated Whatman filter paper to the number of bed bugs which crossed the control Whatman filter paper.

Structure (SMILES)	% Repellency [1] [%]	Repellency Category [1]	Ind % Rep (percent repellency of the individual compound) ([1]; values obtained in Example 1 for the individual compound of a blend) [%]	% Repellency [2] [%]
CCCCCCOC=O [BBC035, hexyl formate]	44	Moderate (Compounds with a percent repellency value of 40-60% were categorized as moderate repellents)	44	–
C=CCc1ccc(O)c(OC)c1 [BBC002, eugenol]	100	Very Strong (compounds with a percent repellency value of 80-100% were categorized as very strong repellents)	–	100
c1ccc2[nH]ccc2c1 [BBC004, indole]	100	Very Strong (compounds with a percent repellency value of 80-100% were categorized as very strong repellents)	–	100
